Source: PubChem BioAssay AID504784 (Drosophila RNAi Screening Center, 2011)

Screen: 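Search for regulators of lipid droplet storage in oleate-fed fly cells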 (primary screen)
Cells: Drosophila Kc167 embryonic cells
Reagent: long dsRNA against Drosophila genes, about 250 ng dsRNA per well
Timing: 4 days
Conditions: cells fed 400 µM oleic acid bound to BSA
Detection: 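Cells imaged and segmented; ratio of lipid droplet area to nuclear area, log-transformed, then normalised as a B-score over the screen; higher means more stored lipid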
Scale: droplet/nuclear area B-score: higher = more stored lipid (overstorage)
The screen tested about 17,000 reagents; shown is a random part of those with a known target gene and a result. 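Each column is one replicate's B-score; the combined score over replicates was not deposited, so single values may mislead.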 The numbers tell different reagents against one gene apart. Names joined by + are all predicted targets of the reagent. Further read-outs or replicates are left out here.

gene	reagent no.	droplet/nuclear area B-score, replicate 1	droplet/nuclear area B-score, replicate 2
alpha-Est4aPsi (pseudo)	1	-0.055	0.746
bys (by S6)	1	1.08	0.0878
f-cup (flyers-cup)	1	7.94	-0.0132
trx (trithorax)	1	-0.227	-5.77
firl (firelighter)	1	-0.563	-1.54
kto (kohtalo)	1	-1.13	-0.893
CadN (Cadherin-N)	1	-1.24	0.586
aop (anterior open)	1	3.09	-1.33
aop (anterior open)	2	-0.162	2.88
mei-P22 (meiotic P22)	1	1.81	2.08
CG12744	1	0.563	-1.64
CG14383	1	2.75	0.0189
CG12164	1	-0.134	0.601
CG12164	2	0.383	-2.51
CG10467	1	1.18	-0.536
btd (buttonhead)	1	-0.428	1.6
CG12206	1	2.01	0.617
CG9676	1	0.349	1.13
tank	1	-0.0286	1.53
CG17154	1	-1.33	-0.0375
CG2898	1	-0.0471	-1.5
FucT6 (alpha1,6-fucosyltransferase)	1	-0.345	0.929
C1GalTA (Core 1 Galactosyltransferase A)	1	0.388	0.509
CG14647	1	0.11	0.197
CG14647	2	0.133	0.35
rho-7 (rhomboid-7)	1	-1.2	-0.00186
CG17085 (retired record)	1	-0.256	-1.04
CG17085 (retired record)	2	-0.138	-0.0221
Calx (Na/Ca-exchange protein)	1	0.263	-0.41
Calx (Na/Ca-exchange protein)	2	-1.64	0.551
Calx (Na/Ca-exchange protein)	3	1.54	0.651
Calx (Na/Ca-exchange protein)	4	1.61	0.441
CG32733 (retired record) + CG32797	1	2.37	5.68
hoe1 (hoepel1)	1	0.223	-3.43
hoe1 (hoepel1)	2	1.01	0.0368
hoe1 (hoepel1)	3	-0.0155	-0.972

In a second layout: results already given.
rho-7 (rhomboid-7): droplet/nuclear area B-score, replicate 1 = -1.2; droplet/nuclear area B-score, replicate 2 = -0.00186
CG17085 (retired record) #1: droplet/nuclear area B-score, replicate 1 = -0.256; droplet/nuclear area B-score, replicate 2 = -1.04
CG17085 (retired record) #2: droplet/nuclear area B-score, replicate 1 = -0.138; droplet/nuclear area B-score, replicate 2 = -0.0221
Calx (Na/Ca-exchange protein) #1: droplet/nuclear area B-score, replicate 1 = 0.263; droplet/nuclear area B-score, replicate 2 = -0.41
